Reference: publication PMC13444138

By UniProt entry, the sequences of proteins in these tests, tags left out. Where a name states a change or a piece, a line headed by the entry shows the natural chain unless it says otherwise.
UniProt Q68DE3: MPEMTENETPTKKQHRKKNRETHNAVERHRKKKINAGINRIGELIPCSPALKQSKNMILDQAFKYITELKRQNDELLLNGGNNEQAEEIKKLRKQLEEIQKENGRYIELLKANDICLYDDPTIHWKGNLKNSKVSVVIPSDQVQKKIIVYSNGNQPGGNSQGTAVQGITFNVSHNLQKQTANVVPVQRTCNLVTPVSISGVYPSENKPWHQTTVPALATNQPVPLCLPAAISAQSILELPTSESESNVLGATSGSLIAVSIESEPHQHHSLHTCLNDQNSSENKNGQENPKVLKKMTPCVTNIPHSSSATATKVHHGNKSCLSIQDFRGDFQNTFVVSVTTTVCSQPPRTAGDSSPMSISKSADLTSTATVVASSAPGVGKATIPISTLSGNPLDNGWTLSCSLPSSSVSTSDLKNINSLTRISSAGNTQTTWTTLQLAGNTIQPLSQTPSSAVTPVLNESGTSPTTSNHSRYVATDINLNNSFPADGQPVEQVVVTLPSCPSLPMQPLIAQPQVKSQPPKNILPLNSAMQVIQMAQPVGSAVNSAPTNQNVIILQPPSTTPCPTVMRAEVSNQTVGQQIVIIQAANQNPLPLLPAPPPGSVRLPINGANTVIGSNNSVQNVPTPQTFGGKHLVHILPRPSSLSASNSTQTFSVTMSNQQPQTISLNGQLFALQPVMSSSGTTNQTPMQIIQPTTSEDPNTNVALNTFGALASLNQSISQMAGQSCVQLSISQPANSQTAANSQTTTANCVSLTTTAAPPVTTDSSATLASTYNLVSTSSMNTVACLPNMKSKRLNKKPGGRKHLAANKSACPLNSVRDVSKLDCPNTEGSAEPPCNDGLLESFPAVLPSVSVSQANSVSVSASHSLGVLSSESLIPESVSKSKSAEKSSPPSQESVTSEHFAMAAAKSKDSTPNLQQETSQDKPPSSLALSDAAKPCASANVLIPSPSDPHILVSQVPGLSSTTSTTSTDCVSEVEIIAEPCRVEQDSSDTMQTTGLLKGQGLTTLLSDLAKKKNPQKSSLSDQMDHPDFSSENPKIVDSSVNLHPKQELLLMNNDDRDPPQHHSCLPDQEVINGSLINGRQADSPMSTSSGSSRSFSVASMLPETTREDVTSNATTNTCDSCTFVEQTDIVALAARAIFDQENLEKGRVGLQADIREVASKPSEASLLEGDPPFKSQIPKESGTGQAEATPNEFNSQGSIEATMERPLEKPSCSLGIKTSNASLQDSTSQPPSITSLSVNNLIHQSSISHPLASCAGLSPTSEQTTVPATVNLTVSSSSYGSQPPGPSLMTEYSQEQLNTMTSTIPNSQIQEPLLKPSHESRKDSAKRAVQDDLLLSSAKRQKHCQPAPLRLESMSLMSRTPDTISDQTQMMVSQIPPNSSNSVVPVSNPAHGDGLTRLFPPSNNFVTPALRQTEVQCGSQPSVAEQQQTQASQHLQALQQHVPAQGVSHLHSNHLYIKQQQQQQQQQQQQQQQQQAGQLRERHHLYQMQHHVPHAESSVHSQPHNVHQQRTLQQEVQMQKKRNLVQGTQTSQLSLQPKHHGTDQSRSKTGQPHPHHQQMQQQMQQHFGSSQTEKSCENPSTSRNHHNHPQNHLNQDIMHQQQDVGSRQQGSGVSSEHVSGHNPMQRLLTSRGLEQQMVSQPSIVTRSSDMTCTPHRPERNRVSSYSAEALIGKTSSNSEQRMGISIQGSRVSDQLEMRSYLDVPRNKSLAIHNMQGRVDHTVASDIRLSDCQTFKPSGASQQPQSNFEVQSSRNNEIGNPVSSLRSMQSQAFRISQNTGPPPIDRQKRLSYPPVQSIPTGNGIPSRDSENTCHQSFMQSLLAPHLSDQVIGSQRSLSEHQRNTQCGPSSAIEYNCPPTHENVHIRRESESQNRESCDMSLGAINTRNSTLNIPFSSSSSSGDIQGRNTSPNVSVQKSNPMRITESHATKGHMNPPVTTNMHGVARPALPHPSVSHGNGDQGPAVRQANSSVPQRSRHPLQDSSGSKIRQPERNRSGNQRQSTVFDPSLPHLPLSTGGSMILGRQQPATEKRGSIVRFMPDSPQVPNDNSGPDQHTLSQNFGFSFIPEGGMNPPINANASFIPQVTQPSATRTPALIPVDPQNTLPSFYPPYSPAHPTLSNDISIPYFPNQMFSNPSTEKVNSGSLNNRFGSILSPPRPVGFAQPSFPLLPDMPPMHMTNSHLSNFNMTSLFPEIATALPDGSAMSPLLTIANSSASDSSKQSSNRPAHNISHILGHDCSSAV
UniProt Q9H4Q3: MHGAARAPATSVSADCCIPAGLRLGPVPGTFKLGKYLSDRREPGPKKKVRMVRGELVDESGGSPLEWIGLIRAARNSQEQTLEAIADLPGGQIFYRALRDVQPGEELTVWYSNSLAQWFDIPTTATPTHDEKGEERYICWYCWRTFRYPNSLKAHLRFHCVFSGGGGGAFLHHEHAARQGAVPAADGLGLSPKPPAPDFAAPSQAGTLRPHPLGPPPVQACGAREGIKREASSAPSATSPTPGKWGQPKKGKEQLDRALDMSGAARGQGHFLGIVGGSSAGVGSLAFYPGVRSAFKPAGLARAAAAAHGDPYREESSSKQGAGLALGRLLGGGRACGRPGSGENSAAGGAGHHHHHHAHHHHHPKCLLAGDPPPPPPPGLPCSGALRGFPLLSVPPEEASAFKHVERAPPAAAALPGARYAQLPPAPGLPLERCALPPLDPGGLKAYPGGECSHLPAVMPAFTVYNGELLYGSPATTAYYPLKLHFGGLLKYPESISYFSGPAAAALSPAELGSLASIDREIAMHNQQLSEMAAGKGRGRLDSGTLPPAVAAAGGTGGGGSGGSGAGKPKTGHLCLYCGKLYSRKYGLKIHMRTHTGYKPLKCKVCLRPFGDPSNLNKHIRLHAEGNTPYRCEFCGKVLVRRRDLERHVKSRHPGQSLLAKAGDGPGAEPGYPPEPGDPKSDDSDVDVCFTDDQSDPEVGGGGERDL

How the values were obtained:
[1] = biological target: USF3-GFP (human) (UniProt Q68DE3); test: EMSA; conditions: TF EMSA: 10 mM Tris-HCl (pH not given), 10 mM NaCl, 40 mM KCl, 1 mM MgCl2, 1 mM EDTA, 1 mM DTT, 0.05 mg/mL BSA, 80 ng poly-dIdC, 0.1 pmol probe, 15 min RT, gel at 4 C, protein translated in vitro, protein details: GFP fusion, label: 5' Cy5 on strand 1
[2] = biological target: PRDM13-GFP (human) (UniProt Q9H4Q3); test: EMSA; conditions: TF EMSA: 10 mM Tris-HCl (pH not given), 10 mM NaCl, 40 mM KCl, 1 mM MgCl2, 1 mM EDTA, 1 mM DTT, 0.05 mg/mL BSA, 80 ng poly-dIdC, 0.1 pmol probe, 15 min RT, gel at 4 C, protein translated in vitro, protein details: GFP fusion, label: 5' Cy5 on strand 1

## GGGGTACTGTGGAGATAGAGTAAAGATCCTAAGGTCTAACCCACGTGGCCAGATGTAGAGAAACTCCCTGAGACC (double strand) [USF3 probe, methylated]
[1]; methylated probe, 5mC at the single CpG (C44 of strand 1; complementary C presumed)
  binding result: no binding

## GGGGTACTGTGGAGATAGAGTAAAGATCCTAAGGTCTAACCCACGTGGCCAGATGTAGAGAAACTCCCTGAGACC (double strand) [USF3 probe, unmethylated]
[1]; unmethylated probe
  binding result: binds

## GGGGTACTGTGGAGATAGAGTAAAGATCCTATAGGTCTAGCAGGTGGCAGATGTATAGAGAAACTCCCTGAGACC (double strand) [PRDM13 no CG probe]
[2]
  binding result: binds

## GGGGTACTGTGGAGATAGAGTAAAGATCCTATAGGTCTAGCGGGTGGCAGATGTATAGAGAAACTCCCTGAGACC (double strand) [PRDM13 methyl plus probe, methylated]
[2]; methylated probe, 5mC at the single CpG (C41 of strand 1; complementary C presumed)
  binding result: binds

Construct, isoform or probe ends are uncertain for at least one entry. For some of these results: No signal at the amounts used counts as a negative.
